Test results as given in US8715706B2, “Methods and devices for delivery of pharmaceutical agents within orifices of the body” (RDD Pharma, Ltd., priority 2009, dated 2014).

Assay: pK studies, rectal rate of absorption using drug release system
Conditions: rectally, drug release system of Example 1, FIGS. 14 and 15
From the text: Accordingly, it is intended to embrace all such alternatives, modifications and variations that fall within the spirit and broad scope of the appended claims.

With `CN1C(=O)CN=C(c2ccccc2)c2cc(Cl)ccc21` [Diazepam] the rate of absorption was “relatively quickly absorbed”.
